Earlier results in patent EP0335902B1, “MONOMERIC PHTHALOCYANINE REAGENTS” (BRITISH TECHNOLOGY GROUP USA INC., priority 1986, dated 1988).
For at least one compound, name, drawing or mass did not settle the structure.

Details: cited from earlier work

## O=C1OC2(c3ccc(O)cc3Oc3cc(O)ccc32)c2ccccc21 [F, fluorescein]
  EM (emission wavelength): 525 nm
  EX (excitation wavelength): 495 nm
  Stokes Shift: 30 nm
